# Laboratory results as given in US20230399395A1.
# Assays:
# [1] = molecular target: cynomolgus macaques IL5 (cynomolgus macaques); assay: ELISA, coated IL5, 2 µg/mL nanobody, anti-HA detection
# [2] = molecular target: cynomolgus macaques IL5 (cynomolgus macaques); assay: ELISA (legend of FIG. 3)
Binder,binding [1],binding [2]
Nb21 (VHH) VHH: QVQLQESGGGSAQAGGSLKLSCVVSGYPYSGDYCMGWFRQAPGKEREGVAAFYTGGGSTYYADSVKGRFTTSQDNATSTFHLQMNSLKPEDTATYYCAADPWSVYGGSCGVKDPNPKAFNYWGQGTQVTVSS,binds,binds
Nb25 (VHH) VHH: QVQLQESGGGSVQAGGSLRLSCAASEYTYSRYCMGWFRQVPGKEREGVATIDSDGSTSYADSVKGRFTISKDNAKNTLYLQMNSLKPEDTAMYYCAARYFYIATTGLRPCGEYEYNYWGQGTQVTVSS,binds,binds
Nb66 (VHH) VHH: QVQLQESGGGSVQAGGSLRLSCAASGYTVSSNMGWFRQAPGKEREGVAAIYPDGATYYADSVKGRFTISQDNAENTVYLQMNSLKPEDTAMYYCAADLAFNGLGTLALHGYWGQGTQVTVSS,binds,binds
Nb92 (VHH) VHH: QVQLQESGGGLVQPGGSLRLSCAASGFTFSNYYMSWVRQAPGKGLEWVSSISSDGSNTYYEDSVKGRFTISRDNANNTLYLQMNSLKSEDTALYHCATDLYDDSWYDHWGQGTQVTVSS,binds,binds

# Results are given in words; binding and its absence hold for the method and conditions named. Binding calls can cover weak binding; strength is not graded here.
